Structures can show the parent of a compound that is named as a salt.
Test: Water content by Karl Fischer method (Ph. Eur. 2.5.12)
Assay type: physicochemical
Conditions: active ingredient used in Example 1

COc1cc2c(cc1OC)C(=O)C(CC1CCN(Cc3ccccc3)CC1)C2 (stereo not shown) [donepezil hydrochloride hydrate]
water content of donepezil hydrochloride hydrate: 5.0%

Reference: US20120283291A1, “SOLID PHARMACEUTICAL COMPOSITION COMPRISING DONEPEZIL HYDROCHLORIDE” (KRKA, TOVARNA ZDRAVIL D.D., NOVO MESTO, priority 2004, published 2012)
